For at least one compound, name, drawing or mass did not settle the structure.
Test system: DBA/1 mice
Test: Collagen induced rheumatoid arthritis (RA) mouse model
Type: in vivo, mice (DBA/1)
Conditions: positive control, dosed as appropriate
Procedure: Mice were immunized with collagen as follows. Collagen (Bovine Type II, 0.05M in acetic acid) was emulsified with CFA (Complete Freund's Adjuvant) by mixing one volume of CFA with an equal amount of the collagen solution. Mixing was continued until a stable, stiff emulsion resulted. To ascertain the desired stability of the emulsion, 1 drop of emulsion was added into a water-filled beaker. The emulsion was considered stable if it remained in the water as a solid. For the collagen IP boost on day 21, the Bovine Type II collagen (Condrex, Seattle, Wash.) was thawed at 4° C. overnight and then mixed 1:1 with the PBS supplied. 200 μL was injected IP into each mouse. Four groups of 10 mice (40 total), aged 7-8 weeks were acclimated a minimum of 5 days prior to start of the study. Animals were housed 5 per cage in microisolators in a 12:12 light dark cycle (all work was done in a BioBubble Hood™). Standard maintenance mouse chow diet (Harlan Teklad 8640) was supplied. Water and food were given ad libitum. High CIA-susceptible DBA/1 mice were utilized which generally develop arthritis 3-5 weeks after immunization with Bovine type TI collagen. Fully developed arthritis, including red and swollen paws, was to be observed 3-5 days after the onset. […] Time of dosing was approximately the same each day following through the end of the study. […]

C[C@@H]1C[C@H]2[C@@H]3CCC4=CC(=O)C=C[C@]4(C)[C@@]3(F)[C@@H](O)C[C@]2(C)[C@@]1(O)C(=O)CO [dexamethasone, reference compound]
inflammation in the paws: prevented inflammation in the paws

— patent US20080221104A1, “SOLUBLE EPOXIDE HYDROLASE INHIBITORS FOR THE TREATMENT OF RHEUMATOID ARTHRITIS” (Arete Therapeutics, Inc., priority 2006, published 2008)
